Some entries share one result that the patent states for a list of compounds.
System: Prostaglandin E2
Test: Prostaglandin E2 in liver homogenate by enzyme immunoassay
Assay type: in vivo
Details: rats, fifth day, 6 hr after treatment; sulindac sulfoxide 20 mg/kg, compound example 1 36 mg/kg

## CC1=C(CC(=O)O)c2cc(F)ccc2/C1=C\c1ccc([S+](C)[O-])cc1 (stereo not shown) [Sulindac sulfoxide, (Z)-5-Fluoro-2-methyl-1-[[4-(methylsulfinyl)phenyl]methylene]-1H-indene-3-acetic acid]
  reduction of prostanoid formation in liver homogenates vs vehicle-treated animals: ≥ 90%

Reference: patent publication US20080207751A1, “Sulindac Derivatives for Treatment of Cancer” (Sulfidris s.r.l., priority 2005, published 2008)
